No constants are given. Whether binding was seen depends on the method and setting. Binding seen in cells or lysates may run through a third protein. Some entries that bind do so weakly or less than the wild type. Where a sequence is shown, tags or fusion partners need not be part of it.
Target: T1, rGST-IrtB (GST-tagged IrtB, Rv1349) (Mycobacterium tuberculosis H37Rv) (UniProt P9WQJ7)
T1 sequence: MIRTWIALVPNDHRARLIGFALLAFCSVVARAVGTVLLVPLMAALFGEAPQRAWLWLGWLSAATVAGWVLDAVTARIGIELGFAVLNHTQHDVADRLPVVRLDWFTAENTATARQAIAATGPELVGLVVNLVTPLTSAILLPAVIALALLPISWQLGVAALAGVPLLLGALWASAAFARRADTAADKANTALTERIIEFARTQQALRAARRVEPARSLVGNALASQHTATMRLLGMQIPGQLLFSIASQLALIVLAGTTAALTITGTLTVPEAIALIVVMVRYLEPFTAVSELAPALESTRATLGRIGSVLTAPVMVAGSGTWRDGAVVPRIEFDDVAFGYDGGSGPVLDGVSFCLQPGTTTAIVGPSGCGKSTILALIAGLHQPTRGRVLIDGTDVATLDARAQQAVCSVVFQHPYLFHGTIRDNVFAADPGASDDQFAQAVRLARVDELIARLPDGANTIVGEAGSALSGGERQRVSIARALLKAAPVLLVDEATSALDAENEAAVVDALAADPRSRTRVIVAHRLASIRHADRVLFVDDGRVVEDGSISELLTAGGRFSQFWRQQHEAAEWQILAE
Experiment: pull-down; only the target purified

B1: Rv2895c from M.tb H37Rv lysate (protein, UniProt P9WL31 1-283)
chain: MAGRPLHAFEVVATRHLAPHMVRVVLGGSGFDTFVPSDFTDSYIKLVFVDDDVDVGRLPRPLTLDSFADLPTAKRPPVRTMTVRHVDAAAREIAVDIVLHGEHGVAGPWAAGAQRGQPIYLMGPGGAYAPDPAADWHLLAGDESAIPAIAAALEALPPDAIGRAFIEVAGPDDEIGLTAPDAVEVNWVYRGGRADLVPEDRAGDHAPLIEAVTTTAWLPGQVHVFIHGEAQAVMHNLRPYVRNERGVDAKWASSISGYWRRGRTEEMFRKWKKELAEAEAGTH
binding: binds

Source: PMC2330087, “Mechanistic Insights into a Novel Exporter-Importer System of Mycobacterium tuberculosis Unravel Its Role in Trafficking of Iron” (PLoS ONE, 2008)
